# Results deposited as PubChem BioAssay AID1259424 (University of Nebraska Medical Center, 2018).
# Purpose: 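Rank knockdowns across the genome by resemblance to the KSR1 depletion profile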 (primary screen)
# System: human HCT116 colon cancer cells
# Reagents: siRNA pool against human genes, 50 nM
# Read-out: 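Six signature mRNAs by branched-DNA multiplex assay, scaled to two housekeeping genes and non-targeting median, log2; matched to mean KSR1 knockdown profile by Pearson correlation and euclidean distance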
# Reading the numbers: mean correlation with KSR1 profile and KSR1 correlation: higher = expression change more like KSR1 knockdown; mean distance from KSR1 profile: higher = expression change less like KSR1 knockdown
# Here is one part, drawn at random, of about 14,000 reagents. 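Higher correlation or smaller distance means closer resemblance to KSR1 loss; control wells, including KSR1 knockdowns, recur on many plates.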 Not given: the time to read-out.
mean correlation with KSR1 profile,mean distance from KSR1 profile,"KSR1 correlation, replicate 1","KSR1 correlation, replicate 2","KSR1 correlation, replicate 3",Target gene
0.353,1.49,0.268,0.51,0.208,KHDRBS1
-0.674,2.73,-0.569,-0.838,-0.752,TOR3A (torsin family 3 member A)
-0.436,1.26,-0.42,0.181,-0.104,SIDT1 (SID1 transmembrane family member 1)
-0.217,3,-0.253,-0.385,-0.158,CCDC191 (coiled-coil domain containing 191)
0.137,2.64,0.41,-0.219,0.0723,CCL3 (C-C motif chemokine ligand 3)
-0.393,3.35,-0.467,0.452,0.0203,PLAGL2 (PLAG1 like zinc finger 2)
-0.335,1.64,-0.274,-0.56,-0.0232,TUBGCP2 (tubulin gamma complex component 2)
0.0756,2,0.273,-0.157,-0.0212,ULK1 (unc-51 like autophagy activating kinase 1)
-0.195,1.83,-0.205,-0.171,-0.175,TSPY1 (testis specific protein Y-linked 1)
-0.138,2.11,-0.109,-0.19,-0.0524,CRYZ (crystallin zeta)
0.231,2.71,0.252,0.0942,0.239,TRAP1 (TNF receptor associated protein 1)
-0.592,2.84,-0.633,-0.819,-0.597,ANGPTL7 (angiopoietin like 7)
0.497,1.23,0.487,0.281,0.643,RPS2P45 (ribosomal protein S2 pseudogene 45)
0.275,1.72,0.307,0.461,0.124,DSN1 (DSN1 component of MIS12 kinetochore complex)
-0.333,2.39,-0.457,-0.191,-0.234,STMN3 (stathmin 3)
0.739,1.59,0.728,0.704,0.712,"TNNI2 (troponin I2, fast skeletal type)"
0.212,2.56,0.155,0.248,0.0262,ZNF606 (zinc finger protein 606)
-0.37,2.61,-0.398,-0.417,-0.299,SCN2B (sodium voltage-gated channel beta subunit 2)
0.639,2.03,0.599,0.693,0.554,SEPTIN6 (septin 6)
0.552,0.703,0.69,0.546,0.057,ZDHHC9 (zDHHC palmitoyltransferase 9)
0.479,1.26,0.124,0.576,-0.368,CASK (calcium/calmodulin dependent serine protein kinase)
-0.0348,2.67,0.0507,0.259,-0.102,RUNX2 (RUNX family transcription factor 2)
-0.558,2.45,-0.442,-0.614,-0.643,DUSP18 (dual specificity phosphatase 18)
0.712,1.22,0.577,0.857,0.729,TAS2R16 (taste 2 receptor member 16)
-0.58,3.06,-0.749,-0.519,-0.812,"ALKBH4 (alkB homolog 4, lysine demethylase)"
-0.681,2.49,-0.781,-0.524,-0.391,THAP1 (THAP domain containing 1)

Continued; the last 7 above are carried over.
mean correlation with KSR1 profile,mean distance from KSR1 profile,"KSR1 correlation, replicate 1","KSR1 correlation, replicate 2","KSR1 correlation, replicate 3",Target gene
0.552,0.703,0.69,0.546,0.057,ZDHHC9 (zDHHC palmitoyltransferase 9)
0.479,1.26,0.124,0.576,-0.368,CASK (calcium/calmodulin dependent serine protein kinase)
-0.0348,2.67,0.0507,0.259,-0.102,RUNX2 (RUNX family transcription factor 2)
-0.558,2.45,-0.442,-0.614,-0.643,DUSP18 (dual specificity phosphatase 18)
0.712,1.22,0.577,0.857,0.729,TAS2R16 (taste 2 receptor member 16)
-0.58,3.06,-0.749,-0.519,-0.812,"ALKBH4 (alkB homolog 4, lysine demethylase)"
-0.681,2.49,-0.781,-0.524,-0.391,THAP1 (THAP domain containing 1)
0.216,3.57,0.279,0.0798,0.109,KCNQ1DN (KCNQ1 downstream neighbor)
-0.188,2.64,-0.0479,-0.243,-0.502,CERT1 (ceramide transporter 1)
0.392,1.64,0.278,0.599,0.357,EEF1E1 (eukaryotic translation elongation factor 1 epsilon 1)
0.189,3.09,0.184,0.282,0.268,CALHM2 (calcium homeostasis modulator family member 2)
0.243,1.98,0.148,-0.0645,0.622,TLN2 (talin 2)
0.696,1.33,0.522,0.669,0.379,MMP23B (matrix metallopeptidase 23B)
-0.184,1.78,0.0429,-0.424,-0.376,HIGD1B (HIG1 hypoxia inducible domain family member 1B)
-0.508,2.97,-0.421,-0.258,-0.322,KMT5B (lysine methyltransferase 5B)
-0.451,3.93,-0.403,-0.453,-0.484,CABIN1 (calcineurin binding protein 1)
0.0977,3.46,0.0654,-0.227,-0.109,GID4 (GID complex subunit 4 homolog)
0.252,1.63,0.253,0.158,0.291,"ST3GAL5 (ST3 beta-galactoside alpha-2,3-sialyltransferase 5)"
0.306,3.16,0.462,0.56,0.217,OR12D2 (olfactory receptor family 12 subfamily D member 2)
0.246,1.58,0.485,0.133,0.275,NFE2L2 (NFE2 like bZIP transcription factor 2)
-0.132,1.31,-0.0608,0.0096,-0.156,SNAPC4 (small nuclear RNA activating complex polypeptide 4)
-0.311,2.57,-0.337,-0.429,-0.481,IFIT1 (interferon induced protein with tetratricopeptide repeats 1)
-0.463,1.66,-0.233,-0.504,-0.678,TTC12 (tetratricopeptide repeat domain 12)
0.509,1.19,0.397,0.469,0.367,GTF2A1 (general transcription factor IIA subunit 1)
-0.652,1.61,-0.514,-0.701,-0.418,KIF2B (kinesin family member 2B)
0.352,2.03,0.54,0.545,0.037,ELF3 (E74 like ETS transcription factor 3)
-0.195,2.28,0.0152,-0.114,-0.662,GALNT11 (polypeptide N-acetylgalactosaminyltransferase 11)
-0.339,3.96,-0.238,-0.643,-0.185,DNAJC6 (DnaJ heat shock protein family (Hsp40) member C6)
0.234,0.718,-0.495,0.0361,0.25,ERMARD (ER membrane associated RNA degradation)
0.635,0.695,0.741,0.22,0.478,CYP4A11 (cytochrome P450 family 4 subfamily A member 11)
-0.184,3.01,-0.213,-0.141,-0.241,GAGE2C (G antigen 2C)
